According to the supplement of paper PMC5949888:
Most values lie at the floor of the assay. Slopes are relative: functional sequences can read slightly below zero.

test system: Saccharomyces cerevisiae PS128 hsf1 delta, HSF1(1-493) fusion; assay: growth estimate (transactivation domain function in HSF1 fusion, heat-shock survival) (a.u. (slope of normalised read count over time)); higher = stronger growth at 37°C, i.e. more transactivation activity; conditions: library: random library

| Substance | growth estimate |
| --- | --- |
| SRDWAGVYLDKLARVIRLSL | < -0.25 |
| SYSAGRH | -0.245 |
| RACCCN | < -0.25 |
| YSANLLRR | < -0.25 |
| VRIR | < -0.25 |
| GPTLLTSHKEENVCVRRSHA | < -0.25 |
| SCLLCLLFVGIQVYVELVRS | < -0.25 |
| DSPLGGL | -0.239 |
| PEGGQSLLGQLGNVLLRT | < -0.25 |
| PRECHSCQLAARDTRHRS | < -0.25 |
| GSVAASQDGSSS | < -0.25 |
| GVPVVWLGGERLVDIIRFIQ | < -0.25 |
| FGITWALT | < -0.25 |
| PCQKGLRDVPFAPCCE | < -0.25 |
| HPCYLYNSAIPVCSVMHHGC | < -0.25 |
| YSQRWCDD | < -0.25 |
| GCYSRRRSMAGDQQVGRRFR | < -0.25 |
| PCISRYGLGSSCGLGPTVFI | < -0.25 |
| YPADSYTRLLMNPRE | < -0.25 |
| LERIRQPQISCAGTRCWTAF | < -0.25 |
| WILIDGSIRGVVTDGYDPRP | < -0.25 |
| YRVLHASFT | < -0.25 |
| HTCL | < -0.25 |
| GTS | < -0.25 |
| TILYDRFVS | < -0.25 |

Given tab-delimited: part of the list above
Substance	growth estimate
SCLLCLLFVGIQVYVELVRS	< -0.25
DSPLGGL	-0.239
PEGGQSLLGQLGNVLLRT	< -0.25

Remaining list, next part

| Substance | growth estimate |
| --- | --- |
| YDQSLFASHRDICPQGLLPN | -0.25 |
| SGCKTRGGPGTLLRLEGFRQ | < -0.25 |
| HSYDCTGKVGQWT | < -0.25 |
| SASVLARVRLLGETVKPVSL | < -0.25 |
| FLRSFILLFLWCGTKASLHG | < -0.25 |
| QLSGRVATAAGCVSIVWTRK | < -0.25 |
| RLLNAFPAKRIWDRR | < -0.25 |
| ISDIKKCTRSHDNTQRCSRL | < -0.25 |
| VTRISAQLREVSGRLERIGS | < -0.25 |
| CQGHDCTSSFWTQNWVLEQL | < -0.25 |
| NRSGYRLGWLHIGDRNMIHV | < -0.25 |
| TLVEALSGRSP | < -0.25 |
| THILIGFTLPDQRVY | < -0.25 |
| LSNGEQPGDNGCVRESPSKI | < -0.25 |
| SRPQFPIGL | < -0.25 |
| VESAGFTTEGIIVRSTPD | < -0.25 |
| PVAMSRGVWASGPRAYAVYD | < -0.25 |
| ARCTFTRMEVT | < -0.25 |
| VCNQVSLVQPDEAERSLRRS | < -0.25 |
| TTVNTGDGSLWR | < -0.25 |
| MYWASYSVLTTPAKQLARVP | < -0.25 |
| SSFICTCHVGLPDPRDLLTY | -0.248 |
| RLGDFWGPASVCHVAQTTPN | < -0.25 |
| IFVLVFPHRDKLRGEAGDSK | < -0.25 |
| DHG | < -0.25 |

As entered above.
YSQRWCDD | growth estimate: < -0.25
RLGDFWGPASVCHVAQTTPN | growth estimate: < -0.25

The results go on:

| Substance | growth estimate |
| --- | --- |
| LTALGRP | < -0.25 |
| GGNPHRQISSPYRTLMAVRG | < -0.25 |
| SCGWGTIAWTSGLRHYLAGH | < -0.25 |
| PGTHVTIVGSGGQVVHPRPC | < -0.25 |
| QDEEQGL | < -0.25 |
| RTCGQVDRHTPRLALIKAAQ | < -0.25 |
| ANLSLPLVVELVKEHF | < -0.25 |
| KSGIISERLDHSYNHGLCD | < -0.25 |
| NVPRQFRRETGEGLTSWIKC | < -0.25 |
| LAVEGIASFEKCMAIEAVLP | < -0.25 |
| VGFAPSRQCGPFR | < -0.25 |
| GRSE | < -0.25 |
| QCRYGVGECTRVFMVTGN | < -0.25 |
| CRLKPESTCSATAAG | < -0.25 |
| DFCVVEGFGPTIILGAARGL | < -0.25 |
| SVHISGVHAALVSDASGD | < -0.25 |
| GTHPGHFNVSTGEKAREPSG | 0.184 |
| LRVQRR | < -0.25 |
| IDPETRDVRTFYYKTFLPAA | -0.246 |
| PRSHETSRKIGVPAVAALGQ | < -0.25 |
| LWPWEVVTKITFL | < -0.253 |
| NLPQSRLNLLAVSYLTVVGR | < -0.25 |
| TSPRM | < -0.25 |
| NVKLSIWVRITLTPFIRNIE | < -0.25 |
| SLILLSSSPGYWGYGLLPNI | < -0.25 |

| Substance | growth estimate |
| --- | --- |
| RSSNSGVDAGR | < -0.25 |
| NLRREDAMMRRHALSTCKVR | < -0.25 |
| DVCEPKLYIRFDLTKLR | < -0.25 |
| SDYVPGGTSIHRWARSVDYT | < -0.25 |
| HTALFGGP | -0.13 |
| KGYATRIIPYGFNS | < -0.25 |
| VSNGLLFILPCLTRADKRLS | < -0.25 |
| EAFSGMPNHCTIYSSLQPGI | < -0.25 |
| LIPDNGVGVGLGRLEGG | < -0.25 |
| PRYSSTIF | < -0.25 |
| LWMPAQNH | < -0.25 |
| ATWHMRTLPSGGHTGVILDP | < -0.25 |
| TPKLAYLPAKSRCVNC | < -0.25 |
| IWAILIQAVANKLVCRLSSC | 0.133 |
| LVNLGDRYLAHLGAVVSVFV | < -0.25 |
| LVFGPLLSRTRYVGGPHS | < -0.25 |
| SYKYTSQAQSSSVRRNPHEW | < -0.25 |
| NCHRTRAPGRSVIDQNRTMY | < -0.25 |
| FVV | < -0.25 |
| WCRRSARSWDKQY | < -0.25 |
| NVACTIRRDRESARHFEGSP | < -0.25 |
| GAGQ | < -0.25 |
| IIECAKT | < -0.25 |
| LFAKDPLLNMSCVAHTANPS | -0.241 |
